Consider five substances from patent publication US20210238260A1.

Sequences of proteins named here, by UniProt entry; tags and fusion partners are left off. A change or cut given only in a name is not applied to a line headed by its entry. A line that says so, or that is headed by a name, gives the form on record, which may keep a tag or linker.
Factor VIIIa (FVIIIa) (P00451, form named): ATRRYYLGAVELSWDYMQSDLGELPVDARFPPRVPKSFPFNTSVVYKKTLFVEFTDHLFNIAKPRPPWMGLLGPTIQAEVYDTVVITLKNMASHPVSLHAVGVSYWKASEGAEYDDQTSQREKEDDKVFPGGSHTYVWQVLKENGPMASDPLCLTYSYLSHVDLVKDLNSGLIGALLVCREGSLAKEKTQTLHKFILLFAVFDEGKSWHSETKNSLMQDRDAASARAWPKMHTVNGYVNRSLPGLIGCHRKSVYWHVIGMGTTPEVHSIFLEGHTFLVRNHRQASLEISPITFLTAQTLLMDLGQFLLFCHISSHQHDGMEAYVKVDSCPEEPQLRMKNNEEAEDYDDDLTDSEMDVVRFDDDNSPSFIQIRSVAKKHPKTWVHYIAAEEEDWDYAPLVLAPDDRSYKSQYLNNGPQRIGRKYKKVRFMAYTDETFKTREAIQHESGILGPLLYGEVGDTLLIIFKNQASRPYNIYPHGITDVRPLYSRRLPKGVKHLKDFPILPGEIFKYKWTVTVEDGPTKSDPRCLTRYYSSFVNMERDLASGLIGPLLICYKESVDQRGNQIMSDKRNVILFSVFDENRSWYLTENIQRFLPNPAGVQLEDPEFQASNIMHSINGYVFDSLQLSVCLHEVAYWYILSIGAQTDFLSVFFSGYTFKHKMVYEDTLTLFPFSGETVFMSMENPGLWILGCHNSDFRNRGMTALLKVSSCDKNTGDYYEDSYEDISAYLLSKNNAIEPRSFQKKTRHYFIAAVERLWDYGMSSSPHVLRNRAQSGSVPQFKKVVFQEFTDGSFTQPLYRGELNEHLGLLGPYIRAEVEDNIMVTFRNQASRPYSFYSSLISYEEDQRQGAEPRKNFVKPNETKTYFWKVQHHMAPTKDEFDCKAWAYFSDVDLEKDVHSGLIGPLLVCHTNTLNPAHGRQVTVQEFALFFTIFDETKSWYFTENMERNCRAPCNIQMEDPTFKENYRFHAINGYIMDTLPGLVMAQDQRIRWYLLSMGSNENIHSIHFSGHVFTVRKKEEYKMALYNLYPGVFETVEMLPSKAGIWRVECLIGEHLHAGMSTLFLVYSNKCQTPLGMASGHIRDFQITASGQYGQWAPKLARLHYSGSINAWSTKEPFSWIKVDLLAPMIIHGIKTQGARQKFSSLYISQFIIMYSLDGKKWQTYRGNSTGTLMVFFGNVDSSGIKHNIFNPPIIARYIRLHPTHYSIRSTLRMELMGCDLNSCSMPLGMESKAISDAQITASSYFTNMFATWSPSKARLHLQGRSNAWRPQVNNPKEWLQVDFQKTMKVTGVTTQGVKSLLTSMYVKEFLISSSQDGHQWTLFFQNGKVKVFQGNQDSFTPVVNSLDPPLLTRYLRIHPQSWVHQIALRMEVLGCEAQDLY
UniProt P01008: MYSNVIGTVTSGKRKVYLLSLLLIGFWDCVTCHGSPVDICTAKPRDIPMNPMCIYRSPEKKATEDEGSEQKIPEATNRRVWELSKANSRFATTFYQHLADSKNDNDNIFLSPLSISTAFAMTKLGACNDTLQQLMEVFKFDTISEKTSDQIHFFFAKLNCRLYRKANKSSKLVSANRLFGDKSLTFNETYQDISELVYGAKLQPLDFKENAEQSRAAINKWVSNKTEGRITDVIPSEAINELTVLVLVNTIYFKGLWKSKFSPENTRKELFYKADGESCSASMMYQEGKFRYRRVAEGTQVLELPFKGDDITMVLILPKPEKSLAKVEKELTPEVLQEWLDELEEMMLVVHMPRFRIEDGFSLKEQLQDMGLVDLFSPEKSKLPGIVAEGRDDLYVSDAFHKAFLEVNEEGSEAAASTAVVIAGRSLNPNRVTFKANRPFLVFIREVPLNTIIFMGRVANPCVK
UniProt P00740: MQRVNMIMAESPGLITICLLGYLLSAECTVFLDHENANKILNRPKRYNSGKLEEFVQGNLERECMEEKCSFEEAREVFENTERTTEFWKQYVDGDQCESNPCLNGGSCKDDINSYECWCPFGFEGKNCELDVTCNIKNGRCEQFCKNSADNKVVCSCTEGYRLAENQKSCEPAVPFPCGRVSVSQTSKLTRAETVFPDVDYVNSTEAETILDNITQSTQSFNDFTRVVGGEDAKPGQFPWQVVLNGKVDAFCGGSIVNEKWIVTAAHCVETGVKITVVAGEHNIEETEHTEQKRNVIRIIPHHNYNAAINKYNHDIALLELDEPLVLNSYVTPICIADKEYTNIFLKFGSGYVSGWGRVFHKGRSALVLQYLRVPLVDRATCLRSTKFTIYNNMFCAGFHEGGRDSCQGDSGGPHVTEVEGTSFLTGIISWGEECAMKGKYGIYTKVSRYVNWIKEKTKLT

Results are given in words; binding and its absence hold for the method and conditions named. Some entries that bind do so weakly or less than the wild type.

For assay [1], the target named is Factor VIIIa (FVIIIa) (UniProt P00451). Put plainly: assay not described at this place (functional cofactor binding, Example 8).
Assay [2] deals with Antithrombin III (plasma purified human AT-III, Molecular Innovations) (human) (UniProt P01008). Put plainly: AT-III/UFH inhibition of FIXa cleavage of Mesyl-D-CHG-Gly-Arg-AMC.
In assay [3] the target is Factor VIIIa (FVIIIa) (UniProt P00451). Briefly: functional cofactor binding (KD-app): FXa generation by the Xase complex at varied FVIIIa, Spectrafluor FXa.
For the next assay, the target named is FIXa-R318E/R403E (human) (UniProt P00740). Briefly: inhibition of FIXa activity on Mesyl-D-CHG-Gly-Arg-AMC by AT-III/LMWH.

“FIXa-E410N (from UniProt P00740 47-191; P00740 227-461) (enzyme)”: the binding entry with Factor VIIIa (FVIIIa) [1] is given as “binds”.

For the substance “FIXa-R318E/R403E (from UniProt P00740 47-191; P00740 227-461) (enzyme)”, in assay [2], the binding entry is “no binding (tested: 35 nM AT-III)”.

As to “FIXa-R318Y/R338E (from UniProt P00740 47-191; P00740 227-461) (enzyme)”, the binding result with Factor VIIIa (FVIIIa) [3] is on record as “binds”.

With “FIXa-R318Y/R338E/R403E/E410N (from UniProt P00740 47-191; P00740 227-461) (enzyme)”, the binding result with Factor VIIIa (FVIIIa) [3] is “binds”.

As to “plasma purified human AT-III (Molecular Innovations), in complex with low molecular weight heparin (from UniProt P01008 33-464)”, the binding entry in the assay with FIXa-R318E/R403E (human) is reported as “no binding (tested: 999 nM (assigned lower limit of K0.5))”.
